PubChem BioAssay AID1259284, Sanger Institute | 2017
Aim: 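Kinase genes needed for growth or acting with cancer drugs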 (primary screen). Cells: SW48 human colorectal cancer cells. Reagents: siRNA pool against human genes. Conditions: anchor drug BYL719 at 1 µM, cetuximab at 5 µg/ml or trametinib at 10 nM, or DMSO vehicle alone. Measured: 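Viability scaled to non-targeting control pool, robust z-score from controls, and synergy scores for each drug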. Direction: robust z-score, no drug: higher = more cells survive knock-down; viability, no drug: higher = more viable cells; synergy with BYL719 and synergy with trametinib and synergy with cetuximab: higher = stronger combined killing with drug. Call rule: 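Called essential when the robust z-score of viability without drug falls below -3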. Meaning of the calls: active = essential without drug; inactive = no change without drug.
This is an unselected part of 794 reagents tested. 16 of them (2%) count as active. 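Calls concern knock-down without drug only; drug synergy was judged apart, with scores above 0.15 taken as synergy.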 Entries without a mark were called inactive. No viability above 1 is reported: the scale is capped. Not given: the amount of reagent, the time to read-out.

Target gene,PubChem SID,"robust z-score, no drug","viability, no drug (fraction of control)",synergy with BYL719,synergy with trametinib,synergy with cetuximab
PCK2,SID56479157,0.426,1,-0.327,-0.0568,-0.165
AKT1,SID135620599,0.426,1,-0.081,-0.157,-0.165
ADCK1,SID135620966,0.426,1,-0.147,0.0849,-0.165
PIK3R4,SID135620923,0.426,1,-0.149,-0.208,-0.117
AURKA,SID135620696,-7.92 (active),0.284,-0.075,-0.0675,-0.222
PKDCC,SID152147854,0.426,1,-0.0973,0.0966,-0.086
BMPR1B,SID56478926,0.426,1,-0.0406,-0.1,-0.0202
PRKAR1B,SID152149404,-1.83,0.807,-0.0576,-0.0793,-0.106
RPS6KA4,SID152147672,0.426,1,-0.191,-0.122,-0.0024
HSPB8,SID56478941,0.426,1,-0.275,0.287,-0.165
KSR1,SID152156641,-0.699,0.903,-0.119,0.0369,0.000957
ITPK1,SID56479109,0.426,1,-0.112,-0.252,-0.165
MAPK13,SID56478704,0.426,1,-0.129,-0.0254,-0.0721
CDK5R2,SID56479219,0.426,1,-0.299,-0.371,-0.165

Called active (from the list above):
Target gene,PubChem SID,"robust z-score, no drug","viability, no drug (fraction of control)",synergy with BYL719,synergy with trametinib,synergy with cetuximab
AURKA,SID135620696,-7.92 (active),0.284,-0.075,-0.0675,-0.222

Next reagents:
Target gene,PubChem SID,"robust z-score, no drug","viability, no drug (fraction of control)",synergy with BYL719,synergy with trametinib,synergy with cetuximab
ACO1,SID134314687,-2.79,0.724,-0.0413,-0.0931,-0.046
MSR1,SID152150198,-0.164,0.949,0,-0.0284,-0.00285
TBK1,SID56478726,0.146,0.976,-0.182,-0.0234,-0.158
RAD21,SID134311994,-3.5 (active),0.663,-0.0522,0.0451,0.0199
TSSK1B,SID56478967,-2.04,0.789,-0.199,-0.0323,-0.0337
BRSK1,SID135620852,0.038,0.967,-0.115,-0.0112,-0.0726
SF3B1,SID152151347,-2.46,0.752,-0.19,0.0659,-0.0302
PFKM,SID56479129,0.426,1,-0.327,-0.208,-0.155
SRP72,SID135623816,0.38,0.996,-0.218,-0.0818,-0.168
MPP2,SID152153278,-0.581,0.914,-0.00446,-0.0462,0.0455
CASP8,SID135620682,0.426,1,-0.367,-0.182,-0.165
KCNH2,SID135621164,-0.0684,0.958,-0.0796,0.0956,0.00839
CDK11B,SID152152958,0.426,1,-0.097,-0.0819,-0.165
ANKK1,SID56478922,-0.68,0.905,-0.0846,0.0625,0.103
SYNCRIP,SID134320219,-0.951,0.882,0.179,0.168,0.0808
MELK,SID56478756,0.426,1,-0.19,-0.165,-0.0692
EIF2AK3,SID152151333,0.426,1,-0.0413,-0.0733,-0.143
ACSL6,SID152156030,-0.324,0.936,-0.0113,0.0395,0.0942
NEK3,SID152154962,-0.0327,0.961,-0.0947,0.0929,0.0209
MYLK3,SID152154935,0.235,0.984,-0.289,-0.0286,-0.179
